Taken from: PubChem BioAssay AID743456 (Peter MacCallum Cancer Centre, 2014)
The deposit covers 878 reagents; below is a part drawn at random. In the full data, 27 (3.1%) got an active call. 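27 mimics are marked active, unlike an earlier stated count of 24; the viability threshold is described inconsistently.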 The record does not give: the amount of reagent.

Test: 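Mimic library tested for viability and apoptosis changes under vorinostat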 (primary screen)
Cell system: human HCT116-VR colon cancer cells, a vorinostat-resistant HCT116 line
Reagent: miRNA mimic
Timing: about 3 days from transfection to readout; drug present for the last 24 h
Treatment: vorinostat at 2.5 µM final for 24 h
Detection: 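Cell viability from CellTiter-Fluor signal and caspase activity from luminescence after 24 h vorinostat at 2.5 µM, given as robust z-scores and as ratios to mock-transfected wells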
Direction: viability robust z-score and viability vs mock transfection: higher = more viable cells; caspase robust z-score: higher = more caspase activity, more apoptosis
Active means: 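Active when viability drops or caspase activity climbs beyond robust z thresholds, with wells of poor cell health excluded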

| miRNA | viability robust z-score | caspase robust z-score | viability hit class | caspase hit class | viability vs mock transfection | Outcome |
| --- | --- | --- | --- | --- | --- | --- |
| hsa-miR-553 | 1.25 | -0.83 | no change | no change | 1 | inactive |
| hsa-miR-1914 | 0.76 | -0.68 | no change | no change | 0.88 | inactive |
| hsa-miR-331-5p | 0.02 | 0.51 | no change | no change | 0.8 | inactive |
| hsa-miR-324-3p | 0.82 | 0.05 | no change | no change | 0.9 | inactive |
| hsa-miR-1238 | -2.83 | 2.39 | no change | no change | 0.32 | inactive |
| hsa-miR-606 | 1.04 | 0.02 | no change | no change | 0.96 | inactive |
| hsa-miR-135a | -0.03 | -0.77 | no change | no change | 0.78 | inactive |
| hsa-miR-143* | 0.4 | -0.05 | no change | no change | 0.82 | inactive |
| hsa-miR-542-3p | -2.06 | 1.21 | no change | no change | 0.38 | inactive |
| hsa-miR-1263 | -0.15 | 2.84 | no change | no change | 0.72 | inactive |
| hsa-miR-129-5p | -2.17 | 1 | no change | no change | 0.46 | inactive |
| hsa-miR-1269 | -1.68 | 6.48 | no change | caspase activation | 0.45 | active |
| hsa-miR-615-3p | -0.36 | -0.14 | no change | no change | 0.73 | inactive |
| hsa-miR-194* | -0.04 | -0.25 | no change | no change | 0.78 | inactive |
| hsa-miR-196b | -0.43 | -0.2 | no change | no change | 0.68 | inactive |
| hsa-miR-320b | 0.5 | 0.26 | no change | no change | 0.84 | inactive |
| hsa-miR-576-5p | 1.24 | -0.59 | no change | no change | 0.98 | inactive |
| hsa-miR-1 | 0.44 | -0.38 | no change | no change | 0.86 | inactive |
| hsa-miR-181a | 0.42 | 1.66 | no change | no change | 0.86 | inactive |
| hsa-miR-200c | -0.55 | -0.41 | no change | no change | 0.7 | inactive |
| hsa-miR-205* | -1.09 | -0.35 | no change | no change | 0.55 | inactive |
| hsa-miR-767-3p | 0.78 | 0.44 | no change | no change | 0.89 | inactive |
| hsa-miR-375 | 0.08 | 0.97 | no change | no change | 0.8 | inactive |
| hsa-miR-1250 | -2.51 | 1.29 | no change | no change | 0.37 | inactive |
| hsa-miR-597 | 0.36 | 0.12 | no change | no change | 0.8 | inactive |
| hsa-miR-1287 | -1.02 | 3.48 | no change | no change | 0.56 | inactive |
| hsa-miR-1277 | 0.88 | -0.88 | no change | no change | 0.9 | inactive |
| hsa-miR-1285 | -0.82 | 0.12 | no change | no change | 0.6 | inactive |

Ordered by “caspase robust z-score” (highest first): some entries from above.
| miRNA | viability robust z-score | caspase robust z-score | viability hit class | caspase hit class | viability vs mock transfection | Outcome |
| --- | --- | --- | --- | --- | --- | --- |
| hsa-miR-375 | 0.08 | 0.97 | no change | no change | 0.8 | inactive |
| hsa-miR-767-3p | 0.78 | 0.44 | no change | no change | 0.89 | inactive |
| hsa-miR-205* | -1.09 | -0.35 | no change | no change | 0.55 | inactive |

The list goes on:
| miRNA | viability robust z-score | caspase robust z-score | viability hit class | caspase hit class | viability vs mock transfection | Outcome |
| --- | --- | --- | --- | --- | --- | --- |
| hsa-miR-340 | -0.24 | -1.08 | no change | no change | 0.7 | inactive |
| hsa-miR-150 | 0.6 | -0.9 | no change | no change | 0.88 | inactive |
| hsa-miR-30e | 1.22 | -0.48 | no change | no change | 1 | inactive |
| hsa-miR-193a-5p | 1 | 0.86 | no change | no change | 0.94 | inactive |
| hsa-miR-1304 | -1.38 | -0.45 | no change | no change | 0.5 | inactive |
| hsa-miR-195 | -1.31 | 1.04 | no change | no change | 0.52 | inactive |
| hsa-miR-33a | 0.7 | -0.3 | no change | no change | 0.91 | inactive |
| hsa-miR-520g | 0.56 | 0.8 | no change | no change | 0.88 | inactive |
| hsa-miR-103-2* | -1.9 | 1.88 | no change | no change | 0.41 | inactive |
| hsa-miR-939 | -0.48 | 0.18 | no change | no change | 0.71 | inactive |
| hsa-miR-490-5p | -0.18 | -0.84 | no change | no change | 0.72 | inactive |
| hsa-miR-488 | -0.57 | 0.68 | no change | no change | 0.64 | inactive |
| hsa-miR-143 | 0.74 | -0.22 | no change | no change | 0.88 | inactive |
| hsa-miR-132* | 0.2 | 1.21 | no change | no change | 0.79 | inactive |
| hsa-miR-363 | -0.23 | -0.98 | no change | no change | 0.75 | inactive |
| hsa-miR-548k | 0.48 | -0.9 | no change | no change | 0.84 | inactive |
| hsa-miR-302a* | 1.02 | -0.68 | no change | no change | 0.96 | inactive |
| hsa-miR-424 | -0.42 | 1.38 | no change | no change | 0.68 | inactive |
| hsa-miR-720 | 1.96 | -0.24 | no change | no change | 1.09 | inactive |
| hsa-miR-550* | -0.52 | 1.29 | no change | no change | 0.7 | inactive |
| hsa-miR-517a | -1.12 | 3.56 | no change | no change | 0.6 | inactive |
| hsa-miR-34b | -0.31 | -0.42 | no change | no change | 0.74 | inactive |
| hsa-miR-495 | 0.56 | -0.3 | no change | no change | 0.88 | inactive |
| hsa-miR-627 | 0.2 | -0.89 | no change | no change | 0.82 | inactive |
| hsa-miR-371-3p | -0.05 | 3.38 | no change | no change | 0.74 | inactive |
| hsa-miR-1260 | -0.59 | -1.1 | no change | no change | 0.7 | inactive |
| hsa-miR-335* | -0.43 | -0.3 | no change | no change | 0.72 | inactive |
| hsa-miR-543 | 0.74 | -0.38 | no change | no change | 0.91 | inactive |
| hsa-miR-1226 | -0.7 | 1.6 | no change | no change | 0.62 | inactive |
| hsa-miR-496 | 0.98 | -0.5 | no change | no change | 0.96 | inactive |
| hsa-miR-1914* | 0.94 | -0.6 | no change | no change | 0.92 | inactive |
| hsa-miR-526b | -0.3 | 1.34 | no change | no change | 0.7 | inactive |
| hsa-miR-708* | 0.82 | 0.52 | no change | no change | 0.92 | inactive |
| hsa-miR-379* | 0.56 | -0.62 | no change | no change | 0.88 | inactive |
| hsa-miR-33b* | -0.32 | 1.29 | no change | no change | 0.74 | inactive |
